According to PMC6520397:
No constants are given. Whether binding was seen depends on the method and setting.

The chains behind the UniProt entries cited, without tags or fusion partners. Where a name states a change or a piece, a line headed by the entry shows the natural chain unless it says otherwise. A line that says so, or that is headed by a name, gives the form on record, which may keep a tag or linker.
BIR3 (241-356) C351S mutant (P98170, form named): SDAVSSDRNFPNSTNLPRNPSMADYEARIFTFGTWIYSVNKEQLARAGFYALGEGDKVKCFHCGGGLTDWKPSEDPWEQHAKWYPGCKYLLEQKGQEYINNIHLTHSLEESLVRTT

Columns and labels:
[1] = target: BIR3 (241-356) C351S mutant (UniProt P98170); test: SEC; BIR3 or BIR3 C351S mixed with one equivalent of CuSO4 (Cu(II)), 20 mM Bis-Tris pH 6.5, 30 min at room temperature, supernatant on a gel-filtration column; fractions identified by MALDI-TOF and SDS-PAGE; 0.1 mM protein by the legend of Figure 3, 0.5 mM by the methods; both purified
[2] = target: BIR3 (241-356) C351S mutant (UniProt P98170); test: SEC; 0.5 mM BIR3 or BIR3 C351S mixed with one equivalent of Cu(I) as [Cu(CH3CN)4][PF6] or Cu(II)-VC (copper sulfate with ascorbic acid 1:9), 20 mM Bis-Tris pH 6.5, 30 min at room temperature; fractions run on SDS-PAGE; both purified

- binding [1]: no binding (tested: 0.1 mM)
- binding [2]: no binding (tested: 0.5 mM)
Substance: BIR3 (241-356) C351S mutant (from UniProt P98170 241-356) (domain or fragment)
